# Measurements published in the supplement of paper PMC12067093, “Discovery and optimisation of a covalent ligand for TRIM25 and its application to targeted protein ubiquitination” (Chemical Science, 2025).
# Chains of the proteins cited; added tags and fusions are not shown. Lines headed by an entry give the natural chain unless they say otherwise; changes in a name come on top.
# UniProt Q01082, whole entry, looked up: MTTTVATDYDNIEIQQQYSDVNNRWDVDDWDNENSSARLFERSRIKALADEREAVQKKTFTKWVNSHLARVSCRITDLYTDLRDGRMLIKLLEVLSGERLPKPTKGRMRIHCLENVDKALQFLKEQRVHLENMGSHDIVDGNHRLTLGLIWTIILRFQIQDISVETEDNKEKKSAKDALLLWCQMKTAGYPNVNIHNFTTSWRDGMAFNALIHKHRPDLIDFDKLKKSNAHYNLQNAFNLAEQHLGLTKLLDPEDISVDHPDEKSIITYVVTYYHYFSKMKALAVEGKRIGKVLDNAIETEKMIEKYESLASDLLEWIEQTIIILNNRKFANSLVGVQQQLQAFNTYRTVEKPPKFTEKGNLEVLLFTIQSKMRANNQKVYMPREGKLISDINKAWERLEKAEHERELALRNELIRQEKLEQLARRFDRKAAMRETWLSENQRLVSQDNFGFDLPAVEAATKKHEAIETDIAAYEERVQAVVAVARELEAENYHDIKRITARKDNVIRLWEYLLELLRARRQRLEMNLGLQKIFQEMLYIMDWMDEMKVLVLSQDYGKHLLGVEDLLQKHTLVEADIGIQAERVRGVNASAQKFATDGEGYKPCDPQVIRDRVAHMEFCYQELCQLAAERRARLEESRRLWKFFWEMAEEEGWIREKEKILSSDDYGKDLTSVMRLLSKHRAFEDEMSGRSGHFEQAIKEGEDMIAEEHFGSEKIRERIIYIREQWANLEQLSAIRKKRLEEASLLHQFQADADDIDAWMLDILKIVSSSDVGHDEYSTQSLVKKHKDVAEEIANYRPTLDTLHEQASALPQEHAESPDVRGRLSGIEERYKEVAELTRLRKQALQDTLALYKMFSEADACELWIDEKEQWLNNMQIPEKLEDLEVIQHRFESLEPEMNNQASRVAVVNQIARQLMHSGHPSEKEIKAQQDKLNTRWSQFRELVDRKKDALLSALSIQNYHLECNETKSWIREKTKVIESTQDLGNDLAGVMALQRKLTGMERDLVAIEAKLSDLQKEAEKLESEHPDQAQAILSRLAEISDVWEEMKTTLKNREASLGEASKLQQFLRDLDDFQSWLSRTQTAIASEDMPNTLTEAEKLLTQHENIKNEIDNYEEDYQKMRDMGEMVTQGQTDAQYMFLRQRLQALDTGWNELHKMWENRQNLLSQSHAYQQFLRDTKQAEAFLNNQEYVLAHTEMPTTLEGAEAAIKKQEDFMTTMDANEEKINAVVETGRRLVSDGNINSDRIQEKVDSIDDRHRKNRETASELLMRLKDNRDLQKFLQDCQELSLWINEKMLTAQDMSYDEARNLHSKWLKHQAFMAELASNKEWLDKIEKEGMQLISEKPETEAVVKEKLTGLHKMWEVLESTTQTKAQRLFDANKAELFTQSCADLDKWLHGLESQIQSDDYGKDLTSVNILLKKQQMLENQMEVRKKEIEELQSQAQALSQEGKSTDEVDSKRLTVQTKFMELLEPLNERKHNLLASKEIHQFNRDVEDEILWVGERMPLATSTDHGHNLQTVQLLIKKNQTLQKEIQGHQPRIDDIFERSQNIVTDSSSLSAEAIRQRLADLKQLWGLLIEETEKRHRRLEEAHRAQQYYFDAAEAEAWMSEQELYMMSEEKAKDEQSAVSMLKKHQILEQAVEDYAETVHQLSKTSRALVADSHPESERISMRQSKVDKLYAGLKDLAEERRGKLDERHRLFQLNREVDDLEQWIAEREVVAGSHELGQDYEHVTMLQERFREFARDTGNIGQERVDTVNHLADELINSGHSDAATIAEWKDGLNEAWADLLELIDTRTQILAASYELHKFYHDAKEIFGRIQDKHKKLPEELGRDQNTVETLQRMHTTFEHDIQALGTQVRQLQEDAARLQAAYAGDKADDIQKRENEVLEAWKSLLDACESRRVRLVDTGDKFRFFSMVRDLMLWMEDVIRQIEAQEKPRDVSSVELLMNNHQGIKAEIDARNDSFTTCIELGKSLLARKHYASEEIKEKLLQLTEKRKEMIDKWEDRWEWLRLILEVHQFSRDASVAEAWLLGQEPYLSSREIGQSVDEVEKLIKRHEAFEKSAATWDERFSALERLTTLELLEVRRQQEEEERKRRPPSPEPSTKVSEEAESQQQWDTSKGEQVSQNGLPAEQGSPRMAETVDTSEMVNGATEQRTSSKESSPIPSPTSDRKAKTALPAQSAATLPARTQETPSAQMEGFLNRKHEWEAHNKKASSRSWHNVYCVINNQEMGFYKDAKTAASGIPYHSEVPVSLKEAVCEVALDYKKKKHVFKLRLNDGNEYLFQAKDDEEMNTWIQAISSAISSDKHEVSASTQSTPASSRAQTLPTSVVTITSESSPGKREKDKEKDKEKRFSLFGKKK
# UniProt O15269: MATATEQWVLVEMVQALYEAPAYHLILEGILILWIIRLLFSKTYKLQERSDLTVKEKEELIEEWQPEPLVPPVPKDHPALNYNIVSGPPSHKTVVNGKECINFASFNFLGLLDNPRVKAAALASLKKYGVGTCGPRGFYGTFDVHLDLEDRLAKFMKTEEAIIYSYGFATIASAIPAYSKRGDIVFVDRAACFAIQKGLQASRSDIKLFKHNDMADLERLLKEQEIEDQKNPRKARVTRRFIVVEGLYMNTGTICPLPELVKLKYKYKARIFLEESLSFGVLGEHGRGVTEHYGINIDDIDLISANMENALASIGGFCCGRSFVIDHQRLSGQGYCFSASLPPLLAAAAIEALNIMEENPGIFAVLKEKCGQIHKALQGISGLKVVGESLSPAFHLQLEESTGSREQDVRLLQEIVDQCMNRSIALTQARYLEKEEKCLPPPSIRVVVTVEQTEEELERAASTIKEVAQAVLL
# UniProt Q9Y5X3: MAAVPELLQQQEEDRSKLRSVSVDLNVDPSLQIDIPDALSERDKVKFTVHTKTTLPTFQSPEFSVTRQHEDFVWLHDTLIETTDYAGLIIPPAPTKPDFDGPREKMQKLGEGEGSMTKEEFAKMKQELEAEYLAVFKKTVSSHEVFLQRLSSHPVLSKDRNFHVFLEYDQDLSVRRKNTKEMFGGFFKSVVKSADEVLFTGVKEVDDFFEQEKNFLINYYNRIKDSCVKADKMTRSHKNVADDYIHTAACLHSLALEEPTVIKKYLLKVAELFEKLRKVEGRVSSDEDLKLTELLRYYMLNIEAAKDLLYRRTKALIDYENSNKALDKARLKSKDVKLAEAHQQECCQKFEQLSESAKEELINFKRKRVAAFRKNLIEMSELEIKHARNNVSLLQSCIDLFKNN
# UniProt O76094: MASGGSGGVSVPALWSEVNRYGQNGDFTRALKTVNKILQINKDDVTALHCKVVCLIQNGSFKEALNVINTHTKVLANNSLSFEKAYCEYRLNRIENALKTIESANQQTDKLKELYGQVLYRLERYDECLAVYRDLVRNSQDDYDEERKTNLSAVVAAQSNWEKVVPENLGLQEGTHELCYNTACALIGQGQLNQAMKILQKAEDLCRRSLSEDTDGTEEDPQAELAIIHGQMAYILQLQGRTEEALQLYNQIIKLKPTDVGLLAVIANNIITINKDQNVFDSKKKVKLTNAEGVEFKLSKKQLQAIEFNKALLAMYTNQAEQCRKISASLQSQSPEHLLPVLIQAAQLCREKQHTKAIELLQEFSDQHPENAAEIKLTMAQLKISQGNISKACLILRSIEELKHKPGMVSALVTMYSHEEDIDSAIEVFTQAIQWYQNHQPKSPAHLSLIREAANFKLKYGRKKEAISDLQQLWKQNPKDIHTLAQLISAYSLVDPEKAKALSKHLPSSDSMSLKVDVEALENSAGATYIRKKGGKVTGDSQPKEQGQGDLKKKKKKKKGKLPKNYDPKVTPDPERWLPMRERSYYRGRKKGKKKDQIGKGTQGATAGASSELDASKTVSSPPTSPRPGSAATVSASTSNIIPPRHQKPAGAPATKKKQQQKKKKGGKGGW
# UniProt P19623: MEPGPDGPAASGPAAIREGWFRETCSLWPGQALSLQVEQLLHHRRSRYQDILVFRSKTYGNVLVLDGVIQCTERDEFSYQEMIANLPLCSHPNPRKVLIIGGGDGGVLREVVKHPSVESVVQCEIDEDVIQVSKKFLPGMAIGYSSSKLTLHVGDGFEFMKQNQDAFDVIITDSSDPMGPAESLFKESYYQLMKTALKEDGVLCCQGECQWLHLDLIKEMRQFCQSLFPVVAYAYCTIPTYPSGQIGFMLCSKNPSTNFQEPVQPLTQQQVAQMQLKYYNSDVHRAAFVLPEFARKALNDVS
# UniProt Q9Y6N5: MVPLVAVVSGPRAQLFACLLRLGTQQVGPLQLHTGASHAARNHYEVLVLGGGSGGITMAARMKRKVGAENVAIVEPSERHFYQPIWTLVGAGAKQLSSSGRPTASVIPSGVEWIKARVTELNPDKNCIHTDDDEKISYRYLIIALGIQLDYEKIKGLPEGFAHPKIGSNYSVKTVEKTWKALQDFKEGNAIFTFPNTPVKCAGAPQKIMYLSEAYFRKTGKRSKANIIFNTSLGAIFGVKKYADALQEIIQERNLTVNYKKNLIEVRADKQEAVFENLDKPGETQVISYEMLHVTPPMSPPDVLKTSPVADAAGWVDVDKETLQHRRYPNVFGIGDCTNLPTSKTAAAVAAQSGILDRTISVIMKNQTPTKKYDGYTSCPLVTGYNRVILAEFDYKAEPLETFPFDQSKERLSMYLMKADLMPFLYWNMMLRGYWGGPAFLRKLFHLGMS
# UniProt Q9NZD8: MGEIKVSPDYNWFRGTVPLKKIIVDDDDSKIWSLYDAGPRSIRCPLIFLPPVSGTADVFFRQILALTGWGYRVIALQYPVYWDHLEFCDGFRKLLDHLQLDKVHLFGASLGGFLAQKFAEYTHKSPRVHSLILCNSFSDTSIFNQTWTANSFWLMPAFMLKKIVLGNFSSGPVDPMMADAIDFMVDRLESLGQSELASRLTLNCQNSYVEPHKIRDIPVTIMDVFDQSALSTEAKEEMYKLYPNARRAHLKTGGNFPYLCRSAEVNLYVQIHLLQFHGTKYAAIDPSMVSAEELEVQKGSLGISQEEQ
# UniProt P62316, whole entry, looked up: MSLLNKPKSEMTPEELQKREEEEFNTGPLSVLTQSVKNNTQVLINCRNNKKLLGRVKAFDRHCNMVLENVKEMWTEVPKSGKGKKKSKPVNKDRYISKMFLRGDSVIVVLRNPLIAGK
# UniProt Q5T280: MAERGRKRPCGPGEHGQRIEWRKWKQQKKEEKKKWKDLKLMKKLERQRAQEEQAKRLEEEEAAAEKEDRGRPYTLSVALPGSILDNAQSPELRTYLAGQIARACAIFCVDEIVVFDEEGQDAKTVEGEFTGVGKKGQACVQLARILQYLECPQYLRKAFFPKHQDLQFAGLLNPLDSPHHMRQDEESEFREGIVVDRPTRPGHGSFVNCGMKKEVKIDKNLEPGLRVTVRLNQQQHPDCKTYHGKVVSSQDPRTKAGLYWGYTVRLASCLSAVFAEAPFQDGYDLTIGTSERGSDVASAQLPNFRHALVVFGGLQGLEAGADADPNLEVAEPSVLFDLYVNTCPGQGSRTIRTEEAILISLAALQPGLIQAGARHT
# This is one part of the list.
# Compound: CC1Cc2ccccc2N1C(=O)C1CCCN(C1)C(=O)CCl (mixture of isomers) [TRIM25 ligand 11 (diastereomer mixture)]
# Test: probe-labelled cysteine peptide fold change vs DMSO (competition) (log2 fold change); higher = less target engagement (more negative = stronger competition)
# Settings: THP-1, incubation time: 4 h
# 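Note: competitive chemoproteomic profiling in live THP-1 cells with an iodoacetamide desthiobiotin (IA-DTB) probe, comparing probe-labelled peptide intensities in compound-treated cells against DMSO-treated controls.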
Target,probe-labelled cysteine peptide fold change (10 µM),probe-labelled cysteine peptide fold change (50 µM)
SPTBN1_Q01082_861_MFSEADACELWIDEK (UniProt Q01082),-0.0783,-0.00812
SPTLC1_O15269_133_YGVGTCGPR (UniProt O15269),-0.136,-0.0294
SNX5_Q9Y5X3_346_LAEAHQQECCQK (UniProt Q9Y5X3),-0.0347,0.0484
SRGAP2_O75044_588_DIFHDLMACVTMDNLQER (UniProt O75044),-0.0319,0.111
SRP72_O76094_323_ALLAMYTNQAEQCRK (UniProt O76094),-0.297,-0.238
SRM_P19623_205+209_EDGVLCCQGECQWLHLDLIK (UniProt P19623),0.109,0.287
SQOR_Q9Y6N5_379_KYDGYTSCPLVTGYNR (UniProt Q9Y6N5),-0.0228,0.0291
SNRPB_P14678_45_HMNLILCDCDEFR (UniProt P14678),0.34,0.165
SPTAN1_Q13813_2120_CNSLEEIK (UniProt Q13813),-0.0591,0.0255
SPG21_Q9NZD8_204_LTLNCQNSYVEPHK (UniProt Q9NZD8),-0.11,-0.0338
SNRPD2_P62316_63_AFDRHCNMVLENVK (UniProt P62316),-0.388,-0.34
SNX5_Q9Y5X3_250_NVADDYIHTAACLHSLALEEPTVIK (UniProt Q9Y5X3),0.0896,-0.0461
SPOUT1_Q5T280_239_LNQQQHPDCK (UniProt Q5T280),0.00935,0.134
SPEN_Q96T58_1238_MDHVDFDICTK (UniProt Q96T58),-0.183,-0.25
